The target of this test is long isoform of human ZAP (ZAPL) (human) (UniProt Q7Z2W4). Nature of the test: co-IP; overexpressed proteins in ZC3HAV1-knockout 293T; 0.5% NP40 buffer (10 mM HEPES pH 7.5, 150 mM KCl, 3 mM MgCl2); IP of ZAP with anti-NZAP antibody crosslinked to Protein A Dynabeads, 4 C, 4 h; immunoblot. In general terms: Immunoblotting shows a protein as a band on a membrane.

Sequences of proteins named here, by UniProt entry; tags and fusion partners are left off.
UniProt Q7Z2W4: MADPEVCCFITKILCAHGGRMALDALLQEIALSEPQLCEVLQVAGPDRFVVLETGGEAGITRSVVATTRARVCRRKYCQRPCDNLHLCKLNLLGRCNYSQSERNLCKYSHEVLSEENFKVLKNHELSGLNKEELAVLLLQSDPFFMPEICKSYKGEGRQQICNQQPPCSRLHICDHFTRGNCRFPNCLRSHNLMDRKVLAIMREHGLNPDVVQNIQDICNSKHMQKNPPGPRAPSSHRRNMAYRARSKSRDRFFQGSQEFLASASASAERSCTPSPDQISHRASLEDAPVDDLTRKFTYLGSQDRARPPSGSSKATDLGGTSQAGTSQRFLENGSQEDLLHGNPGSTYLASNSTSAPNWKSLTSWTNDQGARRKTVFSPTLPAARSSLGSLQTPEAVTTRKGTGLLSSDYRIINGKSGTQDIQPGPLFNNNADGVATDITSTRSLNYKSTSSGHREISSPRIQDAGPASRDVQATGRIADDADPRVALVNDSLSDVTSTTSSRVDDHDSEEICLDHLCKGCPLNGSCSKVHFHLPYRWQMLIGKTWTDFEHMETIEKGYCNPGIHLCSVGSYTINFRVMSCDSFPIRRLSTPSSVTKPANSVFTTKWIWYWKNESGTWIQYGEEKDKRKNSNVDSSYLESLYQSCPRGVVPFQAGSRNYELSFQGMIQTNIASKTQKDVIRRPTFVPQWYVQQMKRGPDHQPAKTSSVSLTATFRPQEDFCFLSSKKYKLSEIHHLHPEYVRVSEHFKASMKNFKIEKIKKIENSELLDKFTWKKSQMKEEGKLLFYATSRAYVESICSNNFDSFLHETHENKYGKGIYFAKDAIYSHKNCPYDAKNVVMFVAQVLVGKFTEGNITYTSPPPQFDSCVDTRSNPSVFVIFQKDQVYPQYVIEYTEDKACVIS
UniProt Q14258: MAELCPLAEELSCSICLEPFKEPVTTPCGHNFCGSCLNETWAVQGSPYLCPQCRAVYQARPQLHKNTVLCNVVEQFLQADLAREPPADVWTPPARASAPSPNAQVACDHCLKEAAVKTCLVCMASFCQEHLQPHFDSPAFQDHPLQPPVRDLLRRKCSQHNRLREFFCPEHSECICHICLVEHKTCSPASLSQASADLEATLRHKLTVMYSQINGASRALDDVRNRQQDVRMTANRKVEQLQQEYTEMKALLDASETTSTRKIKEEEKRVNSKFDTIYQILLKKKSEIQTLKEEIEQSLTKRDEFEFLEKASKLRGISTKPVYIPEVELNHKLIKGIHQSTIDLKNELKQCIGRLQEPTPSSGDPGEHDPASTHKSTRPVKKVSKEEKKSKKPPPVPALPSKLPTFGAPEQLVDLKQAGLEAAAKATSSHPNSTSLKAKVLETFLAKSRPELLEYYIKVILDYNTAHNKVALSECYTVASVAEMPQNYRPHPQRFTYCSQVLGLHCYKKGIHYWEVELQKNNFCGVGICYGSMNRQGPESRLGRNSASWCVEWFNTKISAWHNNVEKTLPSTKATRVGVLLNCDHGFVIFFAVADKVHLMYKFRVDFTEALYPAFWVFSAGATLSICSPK

These are yes or no findings as the source states them, for the method shown. In cells and extracts the contact can be indirect. Some results given as binding are weak or reduced against the parent protein; the word gives no strength.

In the case of “V5-tagged full-length (FL) TRIM25 (from UniProt Q14258 1-630)”, the binding result is listed as “binds”.
